The source of these data is paper PMC3930751.

Results are given in words; binding and its absence hold for the method and conditions named. Some results given as binding are weak or reduced against the parent protein; the word gives no strength.

Experiment [1] deals with T1, Gal4 DNA binding domain-SENP1 hybrid (pCMVBD-SENP1), sentrin/SUMO-specific protease 1 (human) (UniProt Q9P0U3).
T1 sequence: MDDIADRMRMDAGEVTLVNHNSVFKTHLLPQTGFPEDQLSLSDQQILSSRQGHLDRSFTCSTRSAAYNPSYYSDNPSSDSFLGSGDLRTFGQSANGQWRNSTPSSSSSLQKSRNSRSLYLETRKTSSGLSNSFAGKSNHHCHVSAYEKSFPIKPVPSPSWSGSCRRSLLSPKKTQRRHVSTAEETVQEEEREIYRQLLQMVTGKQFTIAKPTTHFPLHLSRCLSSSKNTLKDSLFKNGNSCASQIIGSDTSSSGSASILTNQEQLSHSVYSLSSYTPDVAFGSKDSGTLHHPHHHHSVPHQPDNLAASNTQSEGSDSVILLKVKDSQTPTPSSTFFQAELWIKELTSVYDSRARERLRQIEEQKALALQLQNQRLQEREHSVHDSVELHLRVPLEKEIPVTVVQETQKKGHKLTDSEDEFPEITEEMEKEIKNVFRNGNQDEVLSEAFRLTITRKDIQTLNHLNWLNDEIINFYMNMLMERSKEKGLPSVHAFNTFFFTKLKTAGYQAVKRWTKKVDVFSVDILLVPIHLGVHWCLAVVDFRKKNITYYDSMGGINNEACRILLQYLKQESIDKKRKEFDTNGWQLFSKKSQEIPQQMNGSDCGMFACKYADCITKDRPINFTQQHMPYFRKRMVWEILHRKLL
Put plainly: two-hybrid; mammalian two-hybrid in CHO-K1 cells; bait pCMVBD-SENP1 or 2, prey pCMVAD-VDRLBD, Gal4 luciferase reporter with pRL-TK control; cells incubated with 1,25D (10^-8 M) for 24 hours. On the technique in general: In a reporter assay the amount or activity of a reporter protein is the signal.

Experiment [2] concerns the target T2, Gal4 DNA binding domain-SENP2 hybrid (pCMVBD-SENP2), sentrin/SUMO-specific protease 2 (human) (UniProt Q9HC62).
T2 sequence: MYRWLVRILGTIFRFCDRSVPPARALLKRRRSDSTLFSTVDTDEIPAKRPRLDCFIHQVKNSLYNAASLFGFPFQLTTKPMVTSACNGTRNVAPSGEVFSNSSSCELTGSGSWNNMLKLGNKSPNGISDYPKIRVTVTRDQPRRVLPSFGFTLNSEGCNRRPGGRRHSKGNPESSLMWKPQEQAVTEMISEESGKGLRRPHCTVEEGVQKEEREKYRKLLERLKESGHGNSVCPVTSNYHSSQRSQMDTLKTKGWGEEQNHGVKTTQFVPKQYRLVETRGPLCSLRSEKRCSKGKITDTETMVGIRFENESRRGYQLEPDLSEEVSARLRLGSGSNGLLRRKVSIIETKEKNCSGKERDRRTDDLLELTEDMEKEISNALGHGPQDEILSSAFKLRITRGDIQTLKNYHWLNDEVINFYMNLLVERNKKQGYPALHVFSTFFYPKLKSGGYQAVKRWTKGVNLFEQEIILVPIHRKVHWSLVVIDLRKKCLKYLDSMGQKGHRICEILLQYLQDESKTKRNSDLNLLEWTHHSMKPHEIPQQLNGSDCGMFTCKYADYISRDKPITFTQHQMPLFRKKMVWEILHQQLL
The experiment is described as above.

B1: Vitamin D receptor ligand binding domain prey hybrid (pCMVAD-VDRLBD) (domain or fragment, UniProt P11473 96-427)
chain: TDEEVQRKREMILKRKEEEALKDSLRPKLSEEQQRIIAILLDAHHKTYDPTYSDFCQFRPPVRVNDGGGSHPSRPNSRHTPSFSGDSSSSCSDHCITSSDMMDSSSFSNLDLSEEDSDDPSVTLELSQLSMLPHLADLVSYSIQKVIGFAKMIPGFRDLTSEDQIVLLKSSAIEVIMLRSNESFTMDDMSWTCGNQDYKYRVSDVTKAGHSLELIEPLIKFQVGLKKLNLHEEEHVLLMAICIVSPDRPGVQDAALIEAIQDRLSNTLQTYIRCRHPPPGSHLLYAKMIQKLADLRSLNEEHSKQYRCLSFQPECSMKLTPLVLEVFGNEIS
Consider B1, for which the binding result in experiment [1] and in experiment [2] was “binds” in each case.
